Reference: publication PMC9317998
Results are given in words; binding and its absence hold for the method and conditions named. Binding seen in cells or lysates may run through a third protein. Some binding calls cover weakened binding; strength is not graded here. Sequences can lack the tags named with a protein.

Chains of the proteins cited; added tags and fusions are not shown.
UniProt Q13555: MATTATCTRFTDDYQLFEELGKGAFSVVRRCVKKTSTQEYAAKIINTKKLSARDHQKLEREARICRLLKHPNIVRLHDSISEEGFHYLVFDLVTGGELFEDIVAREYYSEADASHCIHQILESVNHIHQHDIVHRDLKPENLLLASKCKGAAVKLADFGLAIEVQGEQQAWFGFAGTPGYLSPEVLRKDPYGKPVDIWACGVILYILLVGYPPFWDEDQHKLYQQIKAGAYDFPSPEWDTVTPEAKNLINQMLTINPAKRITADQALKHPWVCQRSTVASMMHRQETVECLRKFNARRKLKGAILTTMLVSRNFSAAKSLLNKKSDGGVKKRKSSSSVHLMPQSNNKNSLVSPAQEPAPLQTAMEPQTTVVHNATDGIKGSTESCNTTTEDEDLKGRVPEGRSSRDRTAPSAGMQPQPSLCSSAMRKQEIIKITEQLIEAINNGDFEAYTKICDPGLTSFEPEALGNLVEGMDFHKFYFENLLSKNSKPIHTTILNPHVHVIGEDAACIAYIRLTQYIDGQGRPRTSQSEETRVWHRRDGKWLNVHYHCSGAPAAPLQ

Experiments:
HA-CaMKIIγ [1] = molecular target: HA-CaMKIIγ (UniProt Q13555); assay: proximity ligation; MBMECs transfected with FLAG-MEKK3 and HA-CaMKIIγ plasmids; treated with DMSO or Yoda1 (5 μM) for 1 and 2 h, 48 h after transfection; the PLA signal rose with Yoda1 over time
HA-CaMKIIγ [2] = molecular target: HA-CaMKIIγ (UniProt Q13555); assay: co-IP; HEK293T cells transfected with Flag-MEKK3 and HA-CaMKII isoforms; lysis buffer 50 mM Tris-HCl pH 7.4, 100 mM NaCl, 10% glycerol, 0.5% NP-40, 1 mM DTT, 1 mM PMSF; anti-HA magnetic beads, 4 °C overnight; western blotting

B1: Flag-MEKK3 (protein, UniProt Q99759 1-626)
chain: MDEQEALNSIMNDLVALQMNRRHRMPGYETMKNKDTGHSNRQSDVRIKFEHNGERRIIAFSRPVKYEDVEHKVTTVFGQPLDLHYMNNELSILLKNQDDLDKAIDILDRSSSMKSLRILLLSQDRNHNSSSPHSGVSRQVRIKASQSAGDINTIYQPPEPRSRHLSVSSQNPGRSSPPPGYVPERQQHIARQGSYTSINSEGEFIPETSEQCMLDPLSSAENSLSGSCQSLDRSADSPSFRKSRMSRAQSFPDNRQEYSDRETQLYDKGVKGGTYPRRYHVSVHHKDYSDGRRTFPRIRRHQGNLFTLVPSSRSLSTNGENMGLAVQYLDPRGRLRSADSENALSVQERNVPTKSPSAPINWRRGKLLGQGAFGRVYLCYDVDTGRELASKQVQFDPDSPETSKEVSALECEIQLLKNLQHERIVQYYGCLRDRAEKTLTIFMEYMPGGSVKDQLKAYGALTESVTRKYTRQILEGMSYLHSNMIVHRDIKGANILRDSAGNVKLGDFGASKRLQTICMSGTGMRSVTGTPYWMSPEVISGEGYGRKADVWSLGCTVVEMLTEKPPWAEYEAMAAIFKIATQPTNPQLPSHISEHGRDFLRRIFVEARQRPSAEELLTHHFAQLMY
For B1, the binding (HA-CaMKIIγ [1]) was “binds” and the binding (HA-CaMKIIγ [2]) was “binds”.
